# The list shows a part of the results, in another mix than the full data. The calls were merged from several studies; some rest on single wells. Some of the results follow.
# Legend:
# Conditions in all cases: stereoisomer not certain
# [1] = target: T1, OR1L8 (Homo sapiens) (UniProt Q8NGR8)
# T1 sequence (whole entry): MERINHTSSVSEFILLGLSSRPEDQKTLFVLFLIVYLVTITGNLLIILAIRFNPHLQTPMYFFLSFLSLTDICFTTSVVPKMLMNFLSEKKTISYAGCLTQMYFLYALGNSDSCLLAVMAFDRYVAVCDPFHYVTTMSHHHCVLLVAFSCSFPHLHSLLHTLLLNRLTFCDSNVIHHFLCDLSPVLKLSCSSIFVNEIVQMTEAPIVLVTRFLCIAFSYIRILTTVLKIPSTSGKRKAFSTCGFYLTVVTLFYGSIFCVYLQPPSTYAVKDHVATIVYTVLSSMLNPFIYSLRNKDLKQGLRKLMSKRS
# Outline: (§1)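 Assay methods differ from source to source, frequently being transient luciferase assays in mammalian cell lines. For each receptor–molecule pair, the label responsive (active) applies when the original authors judged the measured signal statistically different from baseline, and non-responsive (inactive) applies otherwise.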
# [2] = test system: T2, OR1M1
# T2 sequence (whole entry): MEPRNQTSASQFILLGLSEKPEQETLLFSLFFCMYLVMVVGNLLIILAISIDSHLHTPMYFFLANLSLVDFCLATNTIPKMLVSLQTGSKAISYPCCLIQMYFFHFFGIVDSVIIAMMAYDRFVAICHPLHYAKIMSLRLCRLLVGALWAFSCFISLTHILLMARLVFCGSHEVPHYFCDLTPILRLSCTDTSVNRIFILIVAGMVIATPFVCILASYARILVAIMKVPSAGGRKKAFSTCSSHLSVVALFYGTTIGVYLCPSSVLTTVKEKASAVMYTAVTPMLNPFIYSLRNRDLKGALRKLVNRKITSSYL
# Outline: as §1
# [3] = target: T3, OR1N1 (Homo sapiens) (UniProt Q8NGS0)
# T3 sequence (whole entry): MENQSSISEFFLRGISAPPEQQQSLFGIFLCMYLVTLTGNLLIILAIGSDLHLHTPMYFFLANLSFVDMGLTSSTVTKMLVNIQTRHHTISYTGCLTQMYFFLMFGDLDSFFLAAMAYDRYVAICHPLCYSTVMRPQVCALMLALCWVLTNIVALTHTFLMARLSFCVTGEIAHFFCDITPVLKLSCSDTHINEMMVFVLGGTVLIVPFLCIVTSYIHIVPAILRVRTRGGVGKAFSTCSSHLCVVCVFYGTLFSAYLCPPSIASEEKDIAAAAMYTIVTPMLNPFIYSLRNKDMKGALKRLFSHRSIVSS
# Outline: as §1
# [4] = target: T4, OR1N2 (Homo sapiens) (UniProt Q8NGR9)
# T4 sequence (whole entry): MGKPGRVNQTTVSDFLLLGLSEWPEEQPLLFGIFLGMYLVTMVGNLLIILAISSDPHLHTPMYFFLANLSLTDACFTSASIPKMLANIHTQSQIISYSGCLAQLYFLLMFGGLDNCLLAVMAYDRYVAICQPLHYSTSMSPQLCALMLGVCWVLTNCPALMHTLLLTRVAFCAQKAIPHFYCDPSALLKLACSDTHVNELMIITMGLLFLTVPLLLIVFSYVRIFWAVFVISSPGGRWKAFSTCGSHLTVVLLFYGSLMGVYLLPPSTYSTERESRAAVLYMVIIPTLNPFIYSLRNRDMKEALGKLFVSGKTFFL
# Outline: as §1
# [5] = test system: T5, OR1N2
# T5 sequence (whole entry): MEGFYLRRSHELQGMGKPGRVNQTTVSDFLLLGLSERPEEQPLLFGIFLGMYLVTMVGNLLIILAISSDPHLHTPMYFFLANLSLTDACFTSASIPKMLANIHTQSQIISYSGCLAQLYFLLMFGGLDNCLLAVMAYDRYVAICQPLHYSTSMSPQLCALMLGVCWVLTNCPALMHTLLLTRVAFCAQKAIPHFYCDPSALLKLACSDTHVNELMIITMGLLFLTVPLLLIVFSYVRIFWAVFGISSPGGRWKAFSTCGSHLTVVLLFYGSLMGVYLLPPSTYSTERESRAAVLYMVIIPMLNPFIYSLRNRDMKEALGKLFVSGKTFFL
# Outline: as §1
# [6] = test system: T6, OR1Q1
# T6 sequence (whole entry): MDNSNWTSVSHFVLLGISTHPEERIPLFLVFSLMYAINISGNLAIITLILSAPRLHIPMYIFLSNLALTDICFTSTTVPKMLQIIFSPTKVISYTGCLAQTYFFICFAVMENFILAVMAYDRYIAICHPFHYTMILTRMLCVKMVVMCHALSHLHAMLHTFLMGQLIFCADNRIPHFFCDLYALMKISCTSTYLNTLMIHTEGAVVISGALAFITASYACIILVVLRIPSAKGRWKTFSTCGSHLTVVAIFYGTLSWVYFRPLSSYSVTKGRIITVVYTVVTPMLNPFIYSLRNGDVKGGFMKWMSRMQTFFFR
# Outline: as §1
# [7] = test system: T7, OR1S1
# T7 sequence (whole entry): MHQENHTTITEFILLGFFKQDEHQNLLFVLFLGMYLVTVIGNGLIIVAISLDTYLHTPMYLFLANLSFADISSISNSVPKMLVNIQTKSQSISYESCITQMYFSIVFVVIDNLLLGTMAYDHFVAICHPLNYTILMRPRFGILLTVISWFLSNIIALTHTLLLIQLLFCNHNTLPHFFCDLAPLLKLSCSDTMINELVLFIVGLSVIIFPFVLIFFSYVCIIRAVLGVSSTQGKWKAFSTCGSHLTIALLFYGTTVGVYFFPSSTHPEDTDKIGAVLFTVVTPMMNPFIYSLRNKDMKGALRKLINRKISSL
# Outline: as §1
# [8] = test system: T8, OR1S2
# T8 sequence (whole entry): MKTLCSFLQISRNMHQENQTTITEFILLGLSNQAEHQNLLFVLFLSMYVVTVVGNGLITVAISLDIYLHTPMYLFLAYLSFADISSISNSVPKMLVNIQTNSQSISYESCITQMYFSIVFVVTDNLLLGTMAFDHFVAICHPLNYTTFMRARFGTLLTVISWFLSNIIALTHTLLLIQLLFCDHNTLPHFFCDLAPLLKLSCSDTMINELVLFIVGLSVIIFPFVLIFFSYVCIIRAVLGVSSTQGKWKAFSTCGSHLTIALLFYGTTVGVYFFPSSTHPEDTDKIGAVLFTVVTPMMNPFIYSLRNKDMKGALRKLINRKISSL
# Outline: as §1
# [9] = target: T9, OR2A12 (Homo sapiens) (UniProt Q8NGT7)
# T9 sequence (whole entry): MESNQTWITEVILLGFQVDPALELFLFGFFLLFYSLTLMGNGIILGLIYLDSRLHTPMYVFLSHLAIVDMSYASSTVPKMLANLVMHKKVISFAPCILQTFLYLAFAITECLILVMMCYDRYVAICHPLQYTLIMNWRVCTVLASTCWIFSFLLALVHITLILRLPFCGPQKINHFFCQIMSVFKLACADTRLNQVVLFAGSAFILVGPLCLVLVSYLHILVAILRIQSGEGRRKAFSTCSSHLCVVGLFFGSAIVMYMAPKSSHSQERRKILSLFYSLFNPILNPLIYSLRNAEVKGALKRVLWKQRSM
# Outline: as §1
# [10] = target: T10, OR2A14 (Homo sapiens) (UniProt Q96R47)
# T10 sequence (whole entry): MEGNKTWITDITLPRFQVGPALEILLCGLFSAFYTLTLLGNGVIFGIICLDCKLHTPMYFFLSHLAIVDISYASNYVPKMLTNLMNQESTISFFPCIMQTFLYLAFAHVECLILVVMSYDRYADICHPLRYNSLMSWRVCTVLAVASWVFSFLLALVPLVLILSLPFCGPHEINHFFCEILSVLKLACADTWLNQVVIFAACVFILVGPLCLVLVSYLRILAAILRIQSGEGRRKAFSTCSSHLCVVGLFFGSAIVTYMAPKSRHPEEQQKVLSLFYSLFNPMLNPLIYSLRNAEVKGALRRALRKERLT
# Outline: as §1
SMILES,odorant receptor agonist call [1],odorant receptor agonist call [2],odorant receptor agonist call [3],odorant receptor agonist call [4],odorant receptor agonist call [5],odorant receptor agonist call [6],odorant receptor agonist call [7],odorant receptor agonist call [8],odorant receptor agonist call [9],odorant receptor agonist call [10]
CCCCOC(C)=O,inactive,inactive,inactive,inactive,inactive,inactive,active,inactive,inactive,inactive
CCC(C)=O,inactive,inactive,inactive,inactive,inactive,inactive,inactive,inactive,inactive,inactive
CS,inactive,inactive,inactive,inactive,inactive,inactive,inactive,inactive,inactive,inactive
